Measured values reported in PubChem BioAssay AID248 (DTP/NCI, 2004).
The list does not hold the whole screen: it gathers tests that were run many times, whatever their T/C, doses with no T/C, and many T/C values between a quarter and a half above the control. Further doses and runs are listed elsewhere. T/C: endpoint of the treated group in % of that of the vehicle group. Some entries give survivors of the animals treated and no T/C: the source holds a T/C of zero for them, seemingly a mark for toxic or unscored doses. Some survivor counts are full or nearly so, which does not show that the dose was tolerated: the source hardly ever lists a survival T/C far under the control, and the zero likely stands for such cases as well. Counts of survivors are from the toxicity check (mostly the fifth day) where no day follows; animals may have died later. Schedule codes are those of the source, read here as Q, the interval in days (D) or hours (H), X, the number of doses. Some doses were run more than once; the results are listed from low to high. For survival time, this PubChem deposit counts one and a half times the control or more as active, and values a quarter to a half above the control carry no call in these data; other NCI protocols may use other cut-offs.

System: L1210 leukemia ip in BDF1 mice, survival T/C
Test: NCI In Vivo Anticancer Drug Screen. Data for tumor model L1210 Leukemia (intraperitoneal) in B6D2F1 (BDF1) mice
Conditions: T/C endpoint: mean survival time, higher T/C = longer survival
[1] = dose: 400.0 mg/kg/injection, schedule: Q04DX003 (ip), vehicle: Klucel (hydroxypropylcellulose) (HPC)
[2] = dose: 100.0 mg/kg/injection, schedule: Q01DX009 (ip), vehicle: Klucel (hydroxypropylcellulose) (HPC)
[3] = dose: 200.0 mg/kg/injection, schedule: Q01DX009 (ip), vehicle: Klucel (hydroxypropylcellulose) (HPC)
[4] = dose: 50.0 mg/kg/injection, schedule: Q01DX009 (ip), vehicle: Klucel (hydroxypropylcellulose) (HPC)
[5] = dose: 100.0 mg/kg/injection, schedule: Q04DX003 (ip), vehicle: Klucel (hydroxypropylcellulose) (HPC)
[6] = dose: 200.0 mg/kg/injection, schedule: Q04DX003 (ip), vehicle: Klucel (hydroxypropylcellulose) (HPC)
[7] = dose: 400.0 mg/kg/injection, schedule: Q01DX001 (ip), vehicle: saline
[8] = dose: 80.0 mg/kg/injection, schedule: Q01DX001 (ip), vehicle: saline

In the case of `CCCCCCCCCCCCOc1ccc(C(=O)CC(=O)OCC)cc1`, the survivor count (dose: 100.0 mg/kg/injection, schedule: Q04DX003 (ip), vehicle: saline) is reported as 6 of 6.
With `C[N+]1(C)CC2C3C=CC(C3)C2C1` (stereo not drawn) the survivor count [1] was 0 of 6.
In the case of `COc1ccccc1C(c1ccccc1OC)N(C)C(C)(C)CO`, the survivor count [2] is reported as 3 of 6, the survivor count [3] is reported as 0 of 6 and the survivor count (dose: 400.0 mg/kg/injection, schedule: Q01DX009 (ip), vehicle: Klucel (hydroxypropylcellulose) (HPC)) is reported as 0 of 6.
For `Cc1ccc(Oc2ccc3cc[n+](C)cc3c2)cc1`, the survivor count (dose: 50.0 mg/kg/injection, schedule: Q04DX002 (ip), vehicle: DMSO) was 1 of 3, the survivor count (dose: 100.0 mg/kg/injection, schedule: Q04DX002 (ip), vehicle: DMSO) was 0 of 3 and 1 of 3 and the survivor count (dose: 200.0 mg/kg/injection, schedule: Q04DX002 (ip), vehicle: DMSO) was 0 of 3. For the same compound, the survivor count (dose: 400.0 mg/kg/injection, schedule: Q04DX002 (ip), vehicle: DMSO) was 0 of 3.
For `N#Cc1nc2ccccc2nc1C#N`, the survivor count [4] was 5 of 6, the survivor count (dose: 50.0 mg/kg/injection, schedule: Q04DX003 (ip), vehicle: Klucel (hydroxypropylcellulose) (HPC)) was 6 of 6 and the survivor count [5] was 5 of 6. The survivor count [6] was 2 of 6 and the survivor count [1] was 0 of 6.
In the case of `CCCCCC[As](=O)(O)CCCCCC`, the survivor count (dose: 100.0 mg/kg/injection, schedule: Q01DX001 (ip), vehicle: saline) is reported as 2 of 4, the survivor count (dose: 200.0 mg/kg/injection, schedule: Q01DX001 (ip), vehicle: saline) is reported as 0 of 4 and the survivor count [7] is reported as 0 of 4.
With `CN1CCC(O)(c2ccccc2)C(/C(=N/O)c2ccccc2)C1` (stereo not drawn) the survivor count (dose: 400.0 mg/kg/injection, schedule: Q04DX003 (ip), vehicle: saline) was 6 of 6.
With `O=C(N/N=C\c1cc(=O)[nH]c(=O)[nH]1)c1ccncc1` the survivor count [7] was 2 of 4.
With `[N-]=[N+]=C1C(c2ccccc2)=NC(c2nccc3ccccc23)=C1[N+](=O)[O-]` the survivor count (dose: 40.0 mg/kg/injection, schedule: Q01DX001 (ip), vehicle: saline) was 3 of 6 and the survivor count [8] was 1 of 6.
With `CC(C)C1C(C)N1C(C)C` (stereo not drawn) the survivor count [6] was 0 of 6 and the survivor count [1] was 0 of 6.
For `CC(=O)N1CCc2nc3ccccc3cc21`, the survivor count (dose: 300.0 mg/kg/injection, schedule: Q01DX001 (ip), vehicle: saline) was 0 of 6.
With `c1cc(Nc2ccncc2)ccn1` the survivor count (dose: 50.0 mg/kg/injection, schedule: Q04DX003 (ip), vehicle: saline with Tween-80) was 6 of 6 and the survivor count (dose: 100.0 mg/kg/injection, schedule: Q04DX003 (ip), vehicle: saline with Tween-80) was 1 of 6.
`CC(=O)C1CCC2C3CC=C4CC(O)CCC4(C)C3CCC12C` (stereo not drawn) was tested, and the survivor count [1] was 5 of 6.
In the case of `CN(N=Nc1ccccc1C(=O)NN)C1CCCCC1`, the survivor count (dose: 400.0 mg/kg/injection, schedule: Q01DX009 (ip), vehicle: other) is reported as 0 of 6.
In the case of `COC(=O)c1ccccc1NC(=O)CCl`, the survivor count (dose: 400.0 mg/kg/injection, schedule: Q04DX003 (ip), vehicle: saline with Tween-80) is reported as 5 of 6.
For `CCCCN(c1ccccc1)c1ncnc2c1cnn2C`, the survivor count (dose: 400.0 mg/kg/injection, schedule: Q01DX009 (ip), vehicle: saline with Tween-80) was 1 of 6.
In the case of `O=C(NCCl)Nc1ccccc1`, the survivor count (dose: 200.0 mg/kg/injection, schedule: Q04DX002 (ip), vehicle: saline + alcohol) is reported as 1 of 3 and the survivor count (dose: 400.0 mg/kg/injection, schedule: Q04DX002 (ip), vehicle: saline + alcohol) is reported as 0 of 3.
For `CN(C(=O)CCl)c1ccccc1`, the survivor count [4] was 5 of 5, the survivor count [2] was 1 of 6 and the survivor count [5] was 1 of 6. The survivor count [3] was 0 of 6, the survivor count [6] was 0 of 6 and the survivor count [1] was 1 of 6.
`Cc1ccc(NC(=O)N(CCCCl)N=O)cc1` was tested, and the survivor count (dose: 200.0 mg/kg/injection, schedule: Q01DX009 (ip), vehicle: carboxymethylcellulose (CMC)) was 6 of 6, the T/C (dose: 266.0 mg/kg/injection, schedule: Q01DX001 (ip), vehicle: carboxymethylcellulose (CMC)) was 136 % of control and the T/C (dose: 400.0 mg/kg/injection, schedule: Q01DX001 (ip), vehicle: carboxymethylcellulose (CMC)) was 137 % of control. For the same compound, the survivor count (dose: 600.0 mg/kg/injection, schedule: Q01DX001 (ip), vehicle: carboxymethylcellulose (CMC)) was 0 of 6.
For `Cn1c2ccccc2c2cc[n+]3c(c21)CCCC3`, the survivor count [8] was 1 of 6.
